This data set deals with Npc1-/- mouse liver. Nature of the data set: Liver gene expression microarray, Npc1-/- versus control mice (Affymetrix Mouse GeneChip 1.0 ST). The settings on record: negative = lower in Npc1−/−.
Where [1] appears, read: head prints "weeks" (column between 7 weeks and 11 weeks).

What was measured is the transcript of the gene that encodes the chain shown.

B1: Cd14 (protein, UniProt P10810 16-336, looked up)
Monocyte differentiation …: SPAPPEPCELDEESCSCNFSDPKPDWSSAFNCLGAADVELYGGGRSLEYLLKRVDTEADLGQFTDIIKSLSLKRLTVRAARIPSRILFGALRVLGISGLQELTLENLEVTGTAPPPLLEATGPDLNILNLRNVSWATRDAWLAELQQWLKPGLKVLSIAQAHSLNFSCEQVRVFPALSTLDLSDNPELGERGLISALCPLKFPTLQVLALRNAGMETPSGVCSALAAARVQLQGLDLSHNSLRDAAGAPSCDWPSQLNSLNLSFTGLKQVPKGLPAKLSVLDLSYNRLDRNPSPDELPQVGNLSLKGNPFLDSESHSEKFN
On to B1, for which the “FC (fold-change of expression between Npc1−/− and control mice)” value turned out to be 1.48 (5 weeks of age), 1.60 (7 weeks of age), 2.84 (11 weeks of age) and 1.47 under setting [1].

B2: C1qa (protein, UniProt P98086 23-245, looked up)
Complement C1q subcomponent …: EDVCRAPNGKDGAPGNPGRPGRPGLKGERGEPGAAGIRTGIRGFKGDPGESGPPGKPGNVGLPGPSGPLGDSGPQGLKGVKGNPGNIRDQPRPAFSAIRQNPMTLGNVVIFDKVLTNQESPYQNHTGRFICAVPGFYYFNFQVISKWDLCLFIKSSSGGQPRDSLSFSNTNNKGLFQVLAGGTVLQLRRGDEVWIEKDPAKGRIYQGTEADSIFSGFLIFPSA
For B2, the “FC (fold-change of expression between Npc1−/− and control mice)” value is 1.40 (5 weeks of age), 1.40 (7 weeks of age), 1.87 (11 weeks of age) and 1.59 under setting [1].

B3: C1qb (protein, UniProt P14106 26-253, looked up)
Complement C1q subcomponent …: QSSCTGPPGIPGIPGVPGVPGSDGQPGTPGIKGEKGLPGLAGDLGEFGEKGDPGIPGTPGKVGPKGPVGPKGTPGPSGPRGPKGDSGDYGATQKVAFSALRTINSPLRPNQVIRFEKVITNANENYEPRNGKFTCKVPGLYYFTYHASSRGNLCVNLVRGRDRDSMQKVVTFCDYAQNTFQVTTGGVVLKLEQEEVVHLQATDKNSLLGIEGANSIFTGFLLFPDMDA
For the molecule B3, the “FC (fold-change of expression between Npc1−/− and control mice)” value is, setting by setting: (5 weeks of age) 1.34; (7 weeks of age) 1.46; (11 weeks of age) 2.36; under setting [1], 1.32.

B4: Ccl24 (protein, UniProt Q9JKC0 27-119, looked up)
C-C motif chemokine 24: VTIPSSCCTSFISKKIPENRVVSYQLANGSICPKAGVIFITKKGHKICTDPKLLWVQRHIQKLDAKKNQPSKGAKAVRTKFAVQRRRGNSTEV
For B4, the “FC (fold-change of expression between Npc1−/− and control mice)” value reads like this: (5 weeks of age) −1.76; (7 weeks of age) −1.89; (11 weeks of age) −1.97; under setting [1], −2.13.

(Values after patent US20140370521A1, “IDENTIFICATION OF TWO NOVEL BIOMARKERS FOR NIEMANN-PICK DISEASE TYPE C” (The USA , as Represented by the Secretary, Department of …, priority 2011, published 2014).)
